Results: PubChem BioAssay AID1347076 (National Center for Advancing Translational Sciences (NCATS), 2019)
About 13,000 (3.2%) of roughly 400,000 compounds were called active. Inconclusive results, whose numbers are uncertain, are shown with a selection of clear calls. Calls come from the whole dose curve; as a rule, active = well fitted cell-killing curve with a large enough effect; inconclusive = small, poorly fitted or top-dose-only effect, or effect the other way; inactive = flat fitted curve, though single readings scatter. A potency beside an inconclusive call is a rough fit, not a confirmed value.

assay: qHTS assay for MDR1-selective chemotherapeutics: Primary screen using the drug-selected MDR subline cells KB-V1; conditions: KB-V1 MDR cells viability, CellTiter-Glo, 72 h; series mostly up to 46.1 µM; note: nearly all actives have a fitted effect of over 60% in size
How it was run: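 Luminescent ATP read-out (CellTiter-Glo, 10 min) measures survival of drug-selected KB-V1 MDR cells after 72 h, 37 degrees C compound exposure. Medium: phenol-red-free DMEM, 10% FBS. Values from fitted concentration-response curves.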
Potency is the fitted concentration of half-maximal effect.

| Compound | Potency |
| --- | --- |
| CCc1ccc(NC(=O)C(NS(=O)(=O)c2cccc3nsnc23)c2ccccc2)cc1 (configuration not stated) | inactive |
| CNc1ccc(/C=C/C(=O)c2ccc3c(c2)OCCO3)cc1[N+](=O)[O-] | inactive |
| Cc1ccc(C(=O)N/C(=C\c2ccc(-c3ccccc3[N+](=O)[O-])o2)C(=O)NCCN(C)C)cc1 | inconclusive: 29.1 µM [rising, single point] |
| Cn1nc(-c2ccccc2)c(CSc2ccccc2)c1Cl | inactive |
| C[C@H]1CN(C2CCCCC2)C(=O)[C@@H]1CC(=O)Nc1ccc(Br)cc1 | inconclusive: 8.2 µM [cytotoxic, partial curve, poor fit] |
| COc1ccc(CCNC(=O)c2ccc(N(C)S(=O)(=O)c3ccccc3)cc2)cc1 | inconclusive: 18.4 µM [cytotoxic, single point] |
| CC(C)NC(=O)N1Cc2cc(C(=O)NC3CCCC3)nc(-c3cccc(-c4cccnc4)c3)c2[C@H]1CCO | inactive |
| COc1cccc(CNC(=S)Nc2cccc(Cl)c2C)c1 | inactive |
| COC(=O)c1c(NC(=O)c2ccccc2)sc2c1CC(C)(C)OC2 | inconclusive: 23.1 µM [cytotoxic, single point] |
| Cc1csc(NC(=O)CSc2nc(C(C)C)nc3ccccc23)n1 | active: 14.6 µM |
| CCOCc1c(C(=O)N2CCN(CC(=O)Nc3ccc(F)cc3)CC2)oc2ccccc12 | inconclusive: 5.8 µM [cytotoxic, partial curve, poor fit] |
| CS(=O)(=O)c1ccc(C2=C(c3ccccc3)C(=O)OC2)cc1 | inactive |
| C/C(CC(=O)Nc1cc(C)ccn1)=N\NC(=O)c1cccc(C)c1O | inconclusive: 2.91 µM [cytotoxic, full curve] |
| COc1ccc(CNc2ncnc3nc[nH]c23)cc1OC | inactive |
| COc1ccc(S(=O)(=O)Nc2cccc(C)n2)c2ccccc12 | inconclusive: 20.6 µM [cytotoxic, partial curve] |
| COc1ccc(-c2noc(CCCC(=O)O)n2)cc1 | inconclusive: 11.6 µM [rising, partial curve, poor fit] |
| O=C(CSc1n[nH]c(-c2ccccc2)n1)N1CCN(c2ccccc2F)CC1 | inactive |
| Cc1cc(S(=O)(=O)N2CCc3ccccc3C2)ccc1F | inactive |
| COc1cc(C(=O)Nc2cccc(C(C)=O)c2)cc(OC)c1OC | inactive |
| CCN(CC)CCCOc1nc(C)nc2c1oc1ccccc12 | inconclusive: 8.2 µM [cytotoxic, partial curve, poor fit] |
| CCOc1ccc(CCNC(=O)COC(=O)c2ccc(C)c(S(=O)(=O)N3CCOCC3)c2)cc1OCC | inconclusive: 23.1 µM [rising, partial curve, poor fit] |
| CN(C)c1nc(-c2ccccc2)ns1 | inconclusive: 3.26 µM [rising, partial curve] |
| O=C(Nc1ccc(F)cc1)C(c1ccnc2ccccc12)N1CCN(CC(=O)N2CCCC2)CC1 (configuration not stated) | inconclusive: 23.1 µM [cytotoxic, partial curve, poor fit] |
| CCN(CC(=O)NC(=O)NC1CCCC1)Cc1ccccc1 | inconclusive: 20.6 µM [cytotoxic, single point] |

Taken from above:
Entry of Cn1nc(-c2ccccc2)c(CSc2ccccc2)c1Cl under Potency: inactive
Entry of COc1cccc(CNC(=S)Nc2cccc(Cl)c2C)c1 under Potency: inactive
Entry of CCOc1ccc(CCNC(=O)COC(=O)c2ccc(C)c(S(=O)(=O)N3CCOCC3)c2)cc1OCC under Potency: inconclusive: 23.1 µM [rising, partial curve, poor fit]
Entry of Cc1ccc(C(=O)N/C(=C\c2ccc(-c3ccccc3[N+](=O)[O-])o2)C(=O)NCCN(C)C)cc1 under Potency: inconclusive: 29.1 µM [rising, single point]

Next compounds follow.

| Compound | Potency |
| --- | --- |
| O=C(NC1CCCCC1)c1ccc(S(=O)(=O)NCc2cccnc2)cc1 | inconclusive: 23.1 µM [cytotoxic, partial curve] |
| Cc1c(Cl)cccc1NC(=O)C(CCS(C)(=O)=O)N1Cc2ccccc2C1=O (configuration not stated) | inactive |
| O=C(CSc1ccccc1C(=O)N1CCN(c2ccc([N+](=O)[O-])cc2)CC1)N1CCCC1 | inactive |
| COc1ccc(Oc2nc(SC)nc3ccsc23)cc1 | inconclusive: 29.1 µM [cytotoxic, single point] |
| [O-]/C(=C(\C(=S)Nc1ccc(SC(F)F)cc1)[n+]1ccccc1)c1cc(Cl)ccc1Cl | inconclusive: 4.61 µM [cytotoxic, full curve] |
| Cc1sc2nc[nH]c(=O)c2c1-c1ccc(F)cc1 | inactive |
| COCCn1c(=S)[nH]c2cc(C(=O)NC3CCCCC3C)ccc2c1=O (configuration not stated) | inconclusive: 0.0065 µM [rising, full curve] |
| Cc1ccc(C(=O)OCC(=O)c2c[nH]c3ccccc23)cc1NC(=O)c1ccco1 | inconclusive: 13 µM [cytotoxic, partial curve, poor fit] |
| O=C(CS(=O)c1ccc(C(F)(F)F)cc1[N+](=O)[O-])Oc1ccccc1 (configuration not stated) | inconclusive: 20.6 µM [cytotoxic, single point] |
| CCc1ccc2nc3n[nH]c(N)c3cc2c1 | active: 11.6 µM |
| CCCn1c(N)c(C(=O)CSc2ncnc3sccc23)c(=O)n(C)c1=O | inconclusive: 6.51 µM [cytotoxic, full curve] |
| COc1ccc(/C=C2/SC(=O)N(CC(=O)Nc3cc(C)on3)C2=O)cc1OC | inconclusive: 20.6 µM [rising, single point] |
| O=C(Nc1ccc2c(c1)OCCO2)C1c2ccccc2OCC(=O)N1CC(F)(F)F (configuration not stated) | inactive |
| COc1ccc(Nc2cc(C)c3ccc(O)cc3n2)cc1 | inconclusive: 8.2 µM [cytotoxic, partial curve] |
| Cc1nc2nc(NCc3cccc(Cl)c3)[nH]n2c(=O)c1Cc1ccccc1 | inconclusive: 18.4 µM [rising, single point] |
| CC(C)(C)c1ccc(NC(=O)COC(=O)c2ccc(CN3CCCC3=O)cc2)cc1 | inconclusive: 14.6 µM [rising, single point] |
| COC(=O)CC(=O)CSc1nc2c(cc1C#N)CCC2 | inconclusive: 23.1 µM [rising, single point] |
| O=C(CSc1nc2nc(-c3cccs3)cc(C(F)(F)F)c2c(=O)[nH]1)Nc1ccc(F)c(F)c1 | inconclusive: 23.1 µM [cytotoxic, single point] |
| C/C(=N\NC(=O)c1ccccc1OCCOc1ccccc1)c1ccccc1F | inconclusive: 18.4 µM [cytotoxic, partial curve, poor fit] |
| Cc1occc1-c1nnc(SCC(=O)N2CCN(c3ccc(F)cc3)CC2)n1C | inconclusive: 29.1 µM [cytotoxic, single point] |
| O=S1(=O)N=C(OCc2ccccc2)c2ccccc21 | inactive |
| COC(=O)c1ccc(Cn2c(SCc3ccccc3F)nc3ccncc32)cc1 | inactive |
| CC1CCCN(C(=O)c2cccc(S(=O)(=O)NCc3ccccc3)c2)C1 (configuration not stated) | inactive |
| CCOC(=O)c1c(NC(=O)CC)sc(C(=O)N2CCCCC2)c1C | inconclusive: 20.6 µM [cytotoxic, single point] |

| Compound | Potency |
| --- | --- |
| COC(=O)C1C(O)=C(C=NCC(C)N=CC2=C(O)C(C(=O)OC)C(C)(C)CC2=O)C(=O)CC1(C)C (configuration not stated) | inconclusive: 13 µM [rising, partial curve, poor fit] |
| C(=C\c1ccccc1)/CN1CCN(C(c2cc3ccccc3o2)c2nnnn2Cc2ccccc2)CC1 (configuration not stated) | active: 16.4 µM |
| O=C1C(Cl)=C(NCCc2ccccc2)C(=O)c2ccccc21 | inconclusive: 32.6 µM [cytotoxic, single point] |
| Cn1ncc(Br)c1C(=O)Nc1c(F)c(F)cc(F)c1F | inconclusive: 18.4 µM [cytotoxic, partial curve] |
| O=C(NNC(=O)C1CC1)c1cc(=O)[nH]c2ccccc12 | inactive |
| Cc1cc(N/N=C/c2ccccc2O)c2ccccc2n1 | inconclusive: 29.1 µM [cytotoxic, single point] |
| C=CCn1c(SCC(=O)c2cccs2)nc2sc(C)cc2c1=O | active: 7.31 µM |
| Clc1ccc(SCc2nc3ccccc3[nH]2)cc1 | active: 23.1 µM |
| CCOC(=O)N1CCN(C(=O)C(NC(=O)c2ccc(C(C)(C)C)cc2)C(C)C)CC1 (configuration not stated) | inactive |
| Cc1ccc(Cl)cc1-n1ncc2c(NCc3ccc(F)cc3)ncnc21 | inactive |
| O=C(c1cccs1)N1CCN(S(=O)(=O)c2cccc(Cl)c2Cl)CC1 | inconclusive: 0.731 µM [cytotoxic, single point] |
| COc1cc(NC(=S)NCCc2c[nH]c3ccccc23)c(OC)cc1Cl | inconclusive: 18.4 µM [cytotoxic, single point] |
| Cc1ccnc(NS(=O)(=O)c2ccc(NS(=O)(=O)c3ccc([N+](=O)[O-])cc3)cc2)n1 | inconclusive: 14.6 µM [rising, single point] |
| O=C(Nc1ccccc1)c1ccccc1O | inconclusive: 29.1 µM [cytotoxic, single point] |
| CCc1nc2ccc(C(=O)N(C)CC(=O)Nc3ccc(Cl)c(C(F)(F)F)c3)cc2nc1CC | inactive |
| Cc1ccnn1CCC(=O)N1CCCC(Nc2ccc(C(C)C)cc2)C1 (configuration not stated) | inconclusive: 11.6 µM [cytotoxic, partial curve] |
| O=C(Oc1ccc(Cl)c2cccnc12)c1ccco1 | inconclusive: 25.9 µM [cytotoxic, single point] |
| O=C(COC(=O)C1(c2ccc(F)cc2)CCCC1)NCc1ccco1 | inconclusive: 18.4 µM [cytotoxic, single point] |
| CC(c1ccccc1)N1C(=O)c2ccc(C(=O)NCc3cccnc3)cc2C1=O (configuration not stated) | inactive |
| CCc1cccc(C)c1NC(=S)NCc1cccn1C | inactive |
| CCOc1ccc(CCN2C(=O)C(=O)N([C@@H](Cc3ccccc3)CN3CCC[C@H]3CN3C(=O)C(=O)NC[C@@H]3Cc3ccccc3)C[C@@H]2Cc2ccccc2)cc1 | inactive |
| COc1cccc(C(=O)c2cn(CC(=O)Nc3cccc(C(F)(F)F)c3)c3nc(C)ccc3c2=O)c1 | inactive |
| O=C(CN1C(=O)NC2(CCc3ccccc3C2)C1=O)NCC(F)(F)F (configuration not stated) | inconclusive: 0.0164 µM [rising, full curve] |
| CCOC(=O)c1ccccc1N/C=C1\CCCC1=O | inconclusive: 20.6 µM [cytotoxic, single point] |
